Experimental data: paper PMC6783944
These are yes or no findings as the source states them, for the method shown. In cells and extracts the contact can be indirect. Some binding calls cover weakened binding; strength is not graded here.

Sequences of proteins named here, by UniProt entry; tags and fusion partners are left off.
UniProt Q9Y6X1: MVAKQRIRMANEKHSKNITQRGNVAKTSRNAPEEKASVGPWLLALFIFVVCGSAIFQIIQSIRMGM

How the values were obtained:
[1] = target: Flag-tagged SERP1 (pLKO-AS2-Flag-SERP1) (human) (UniProt Q9Y6X1); test: co-IP
[2] = target: NS2B-LgBit (DENV-2 NS2B fused to the large BiT of NanoLuc luciferase) (dengue virus type 2 (DENV-2), strain 16681) (UniProt P29990); test: split reporter
[3] = target: HA-tagged DENV-2 NS4B (pLKO-AS2-NS4B-HA) (dengue virus type 2 (DENV-2), strain 16681) (UniProt P29990); test: co-IP

HA-tagged DENV-2 NS4B (pLKO-AS2-NS4B-HA) (from UniProt P29990 2244-2491)
binding [1]: binds

SmBit-SERP1 (SERP1 fused to the small BiT of NanoLuc luciferase) (from UniProt Q9Y6X1 1-66)
binding [2]: no binding

Flag-tagged SERP1 (pLKO-AS2-Flag-SERP1) (from UniProt Q9Y6X1 1-66)
binding [3]: binds
